Test results as given in patent US20250283871A1, “COMPOSITIONS AND METHODS FOR MODULATING THE INTERACTION BETWEEN SS18-SSX FUSION ONCOPROTEIN AND NUCLEOSOMES” (Dana-Farber Cancer Institute, Inc., priority 2020, published 2025).

Tested on: BAF complex subunits and histone proteins
Experiment: Mass spectrometry proteomics of purified HA-SS18 WT and HA-SS18-SSX1 complexes (Tables 5A-5E)
Design: species or system human
[1] = HA-SS18SSX1_CHR_peptides: protein identified in the HA-SS18-SSX1 purification from solubilized chromatin (CHR), HEK-293T
[2] = HA-SS18WT_CHR_peptides: protein identified in HA-SS18 WT BAF complex purification from nuclease-treated solubilized chromatin (CHR), HEK-293T
[3] = HA-SS18SSX1 purification, NE (soluble nuclear extract) fraction, HEK-293T, peptides per identified protein
[4] = HA-SS18WT_CHR_peptides: HA-SS18 WT purification from nuclease-treated solubilized chromatin (CHR), HEK-293T, label = protein identified
[5] = HA-SS18WT_NE_peptides: proteins co-purified with HA-SS18 WT from nuclear extract (NE), HEK-293T
[6] = HA-SS18SSX1_NE_peptides: protein co-purified with HA-SS18-SSX1 BAF complexes from soluble nuclear extract (NE), HEK-293T cells

B1: SRSF8 (protein, UniProt Q9BRL6 2-282, looked up)
Serine/arginine-rich splicing …: SCGRPPPDVDGMITLKVDNLTYRTSPDSLRRVFEKYGRVGDVYIPREPHTKAPRGFAFVRFHDRRDAQDAEAAMDGAELDGRELRVQVARYGRRDLPRSRQGEPRGRSRGGGYGRRSRSYGRRSRSPRRRHRSRSRGPSCSRSRSRSRYRGSRYSRSPYSRSPYSRSRYSRSPYSRSRYRESRYGGSHYSSSGYSNSRYSRYHSSRSHSKSGSSTSSRSASTSKSSSARRSKSSSVSRSRSRSRSSSMTRSPPRVSKRKSKSRSRSKRPPKSPEEEGQMSS
[1]
  Total (total peptides): 18
  Unique (unique peptides): 2
[2]
  Total (total peptides): 1
  Unique (unique peptides): 1

B2: SF3B2 (protein, UniProt Q13435 1-895, looked up)
Splicing factor 3B subunit 2: MATEHPEPPKAELQLPPPPPPGHYGAWAAQELQAKLAEIGAPIQGNREELVERLQSYTRQTGIVLNRPVLRGEDGDKAAPPPMSAQLPGIPMPPPPLGLPPLQPPPPPPPPPPGLGLGFPMAHPPNLGPPPPLRVGEPVALSEEERLKLAQQQAALLMQQEERAKQQGDHSLKEHELLEQQKRAAVLLEQERQQEIAKMGTPVPRPPQDMGQIGVRTPLGPRVAAPVGPVGPTPTVLPMGAPVPRPRGPPPPPGDENREMDDPSVGPKIPQALEKILQLKESRQEEMNSQQEEEEMETDARSSLGQSASETEEDTVSVSKKEKNRKRRNRKKKKKPQRVRGVSSESSGDREKDSTRSRGSDSPAADVEIEYVTEEPEIYEPNFIFFKRIFEAFKLTDDVKKEKEKEPEKLDKLENSAAPKKKGFEEEHKDSDDDSSDDEQEKKPEAPKLSKKKLRRMNRFTVAELKQLVARPDVVEMHDVTAQDPKLLVHLKATRNSVPVPRHWCFKRKYLQGKRGIEKPPFELPDFIKRTGIQEMREALQEKEEQKTMKSKMREKVRPKMGKIDIDYQKLHDAFFKWQTKPKLTIHGDLYYEGKEFETRLKEKKPGDLSDELRISLGMPVGPNAHKVPPPWLIAMQRYGPPPSYPNLKIPGLNSPIPESCSFGYHAGGWGKPPVDETGKPLYGDVFGTNAAEFQTKTEEEEIDRTPWGELEPSDEESSEEEEEEESDEDKPDETGFITPADSGLITPGGFSSVPAGMETPELIELRKKKIEEAMDGSETPQLFTVLPEKRTATVGGAMMGSTHIYDMSTVMSRKGPAPELQGVEVALAPEELELDPMAMTQKYEEHVREQQAQVEKEDFSDMVAEHAAKQKQKKRKAQPQDSRGGSKKYKEFKF
[1]
  Total (total peptides): 17
  Unique (unique peptides): 15
[3]
  Total (total peptides): 3
  Unique (unique peptides): 3
[4]
  Total (peptides): 7
  Unique (peptides): 7
[5]
  Total (peptides): 2
  Unique (peptides): 2

B3: SMC1A (protein, UniProt Q14683 1-1233, looked up)
Structural maintenance of …: MGFLKLIEIENFKSYKGRQIIGPFQRFTAIIGPNGSGKSNLMDAISFVLGEKTSNLRVKTLRDLIHGAPVGKPAANRAFVSMVYSEEGAEDRTFARVIVGGSSEYKINNKVVQLHEYSEELEKLGILIKARNFLVFQGAVESIAMKNPKERTALFEEISRSGELAQEYDKRKKEMVKAEEDTQFNYHRKKNIAAERKEAKQEKEEADRYQRLKDEVVRAQVQLQLFKLYHNEVEIEKLNKELASKNKEIEKDKKRMDKVEDELKEKKKELGKMMREQQQIEKEIKEKDSELNQKRPQYIKAKENTSHKIKKLEAAKKSLQNAQKHYKKRKGDMDELEKEMLSVEKARQEFEERMEEESQSQGRDLTLEENQVKKYHRLKEEASKRAATLAQELEKFNRDQKADQDRLDLEERKKVETEAKIKQKLREIEENQKRIEKLEEYITTSKQSLEEQKKLEGELTEEVEMAKRRIDEINKELNQVMEQLGDARIDRQESSRQQRKAEIMESIKRLYPGSVYGRLIDLCQPTQKKYQIAVTKVLGKNMDAIIVDSEKTGRDCIQYIKEQRGEPETFLPLDYLEVKPTDEKLRELKGAKLVIDVIRYEPPHIKKALQYACGNALVCDNVEDARRIAFGGHQRHKTVALDGTLFQKSGVISGGASDLKAKARRWDEKAVDKLKEKKERLTEELKEQMKAKRKEAELRQVQSQAHGLQMRLKYSQSDLEQTKTRHLALNLQEKSKLESELANFGPRINDIKRIIQSREREMKDLKEKMNQVEDEVFEEFCREIGVRNIREFEEEKVKRQNEIAKKRLEFENQKTRLGIQLDFEKNQLKEDQDKVHMWEQTVKKDENEIEKLKKEEQRHMKIIDETMAQLQDLKNQHLAKKSEVNDKNHEMEEIRKKLGGANKEMTHLQKEVTAIETKLEQKRSDRHNLLQACKMQDIKLPLSKGTMDDISQEEGSSQGEDSVSGSQRISSIYAREALIEIDYGDLCEDLKDAQAEEEIKQEMNTLQQKLNEQQSVLQRIAAPNMKAMEKLESVRDKFQETSDEFEAARKRAKKAKQAFEQIKKERFDRFNACFESVATNIDEIYKALSRNSSAQAFLGPENPEEPYLDGINYNCVAPGKRFRPMDNLSGGEKTVAALALLFAIHSYKPAPFFVLDEIDAALDNTNIGKVANYIKEQSTCNFQAIVISLKEEFYTKAESLIGVYPEQGDCVISKVLTFDLTKYPDANPNPNEQ
[1]
  Total (total peptides): 16
  Unique (unique peptides): 15
[3]
  Total (total peptides): 5
  Unique (unique peptides): 5
[4]
  Total (peptides): 14
  Unique (peptides): 13
[5]
  Total (peptides): 1
  Unique (peptides): 1

B4: ILF3 (protein, UniProt Q12906 1-894, looked up)
Interleukin enhancer-binding …: MRPMRIFVNDDRHVMAKHSSVYPTQEELEAVQNMVSHTERALKAVSDWIDEQEKGSSEQAESDNMDVPPEDDSKEGAGEQKTEHMTRTLRGVMRVGLVAKGLLLKGDLDLELVLLCKEKPTTALLDKVADNLAIQLAAVTEDKYEILQSVDDAAIVIKNTKEPPLSLTIHLTSPVVREEMEKVLAGETLSVNDPPDVLDRQKCLAALASLRHAKWFQARANGLKSCVIVIRVLRDLCTRVPTWGPLRGWPLELLCEKSIGTANRPMGAGEALRRVLECLASGIVMPDGSGIYDPCEKEATDAIGHLDRQQREDITQSAQHALRLAAFGQLHKVLGMDPLPSKMPKKPKNENPVDYTVQIPPSTTYAITPMKRPMEEDGEEKSPSKKKKKIQKKEEKAEPPQAMNALMRLNQLKPGLQYKLVSQTGPVHAPIFTMSVEVDGNSFEASGPSKKTAKLHVAVKVLQDMGLPTGAEGRDSSKGEDSAEETEAKPAVVAPAPVVEAVSTPSAAFPSDATAEQGPILTKHGKNPVMELNEKRRGLKYELISETGGSHDKRFVMEVEVDGQKFQGAGSNKKVAKAYAALAALEKLFPDTPLALDANKKKRAPVPVRGGPKFAAKPHNPGFGMGGPMHNEVPPPPNLRGRGRGGSIRGRGRGRGFGGANHGGYMNAGAGYGSYGYGGNSATAGYSQFYSNGGHSGNASGGGGGGGGGSSGYGSYYQGDNYNSPVPPKHAGKKQPHGGQQKPSYGSGYQSHQGQQQSYNQSPYSNYGPPQGKQKGYNHGQGSYSYSNSYNSPGGGGGSDYNYESKFNYSGSGGRSGGNSYGSGGASYNPGSHGGYGGGSGGGSSYQGKQGGYSQSNYNSPGSGQNYSGPPSSYQSSQGGYGRNADHSMNYQYR
[1]
  Total (total peptides): 16
  Unique (unique peptides): 13
[6]
  Total (peptides): 2
  Unique (peptides): 2
[4]
  Total (peptides): 10
  Unique (peptides): 9
